Results taken from publication PMC3836728.
No constants are given. Whether binding was seen depends on the method and setting. Binding seen in cells or lysates may run through a third protein. Here binding means that the protein was enriched with, or labelled near, the bait; the list need not be complete.

Protein sequences, listed by entry. Tags and fused reporters are not part of them. Residues count along the entry.
UniProt Q9QR71, residues 240-300: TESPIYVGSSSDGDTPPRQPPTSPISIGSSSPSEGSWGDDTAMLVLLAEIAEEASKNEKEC
UniProt Q13263: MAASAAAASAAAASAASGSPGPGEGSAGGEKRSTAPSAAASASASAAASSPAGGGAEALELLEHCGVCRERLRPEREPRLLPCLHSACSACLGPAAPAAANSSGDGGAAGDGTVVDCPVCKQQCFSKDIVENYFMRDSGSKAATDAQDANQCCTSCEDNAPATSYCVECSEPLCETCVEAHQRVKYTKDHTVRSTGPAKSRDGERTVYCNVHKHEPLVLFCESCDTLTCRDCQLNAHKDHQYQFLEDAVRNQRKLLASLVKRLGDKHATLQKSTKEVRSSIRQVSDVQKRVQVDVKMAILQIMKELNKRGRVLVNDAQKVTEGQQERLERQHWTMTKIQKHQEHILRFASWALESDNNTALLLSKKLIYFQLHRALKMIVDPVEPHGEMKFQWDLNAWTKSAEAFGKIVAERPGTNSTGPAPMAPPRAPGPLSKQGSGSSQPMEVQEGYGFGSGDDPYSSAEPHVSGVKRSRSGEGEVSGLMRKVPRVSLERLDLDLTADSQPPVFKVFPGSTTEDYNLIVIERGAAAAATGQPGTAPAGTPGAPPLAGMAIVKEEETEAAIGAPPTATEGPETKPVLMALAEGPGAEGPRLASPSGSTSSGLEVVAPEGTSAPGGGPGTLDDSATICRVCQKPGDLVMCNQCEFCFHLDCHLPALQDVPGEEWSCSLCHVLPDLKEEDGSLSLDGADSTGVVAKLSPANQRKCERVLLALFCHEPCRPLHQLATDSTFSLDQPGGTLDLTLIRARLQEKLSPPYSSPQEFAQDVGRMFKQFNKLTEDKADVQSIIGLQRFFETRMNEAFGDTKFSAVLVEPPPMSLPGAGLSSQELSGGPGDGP
UniProt Q92793: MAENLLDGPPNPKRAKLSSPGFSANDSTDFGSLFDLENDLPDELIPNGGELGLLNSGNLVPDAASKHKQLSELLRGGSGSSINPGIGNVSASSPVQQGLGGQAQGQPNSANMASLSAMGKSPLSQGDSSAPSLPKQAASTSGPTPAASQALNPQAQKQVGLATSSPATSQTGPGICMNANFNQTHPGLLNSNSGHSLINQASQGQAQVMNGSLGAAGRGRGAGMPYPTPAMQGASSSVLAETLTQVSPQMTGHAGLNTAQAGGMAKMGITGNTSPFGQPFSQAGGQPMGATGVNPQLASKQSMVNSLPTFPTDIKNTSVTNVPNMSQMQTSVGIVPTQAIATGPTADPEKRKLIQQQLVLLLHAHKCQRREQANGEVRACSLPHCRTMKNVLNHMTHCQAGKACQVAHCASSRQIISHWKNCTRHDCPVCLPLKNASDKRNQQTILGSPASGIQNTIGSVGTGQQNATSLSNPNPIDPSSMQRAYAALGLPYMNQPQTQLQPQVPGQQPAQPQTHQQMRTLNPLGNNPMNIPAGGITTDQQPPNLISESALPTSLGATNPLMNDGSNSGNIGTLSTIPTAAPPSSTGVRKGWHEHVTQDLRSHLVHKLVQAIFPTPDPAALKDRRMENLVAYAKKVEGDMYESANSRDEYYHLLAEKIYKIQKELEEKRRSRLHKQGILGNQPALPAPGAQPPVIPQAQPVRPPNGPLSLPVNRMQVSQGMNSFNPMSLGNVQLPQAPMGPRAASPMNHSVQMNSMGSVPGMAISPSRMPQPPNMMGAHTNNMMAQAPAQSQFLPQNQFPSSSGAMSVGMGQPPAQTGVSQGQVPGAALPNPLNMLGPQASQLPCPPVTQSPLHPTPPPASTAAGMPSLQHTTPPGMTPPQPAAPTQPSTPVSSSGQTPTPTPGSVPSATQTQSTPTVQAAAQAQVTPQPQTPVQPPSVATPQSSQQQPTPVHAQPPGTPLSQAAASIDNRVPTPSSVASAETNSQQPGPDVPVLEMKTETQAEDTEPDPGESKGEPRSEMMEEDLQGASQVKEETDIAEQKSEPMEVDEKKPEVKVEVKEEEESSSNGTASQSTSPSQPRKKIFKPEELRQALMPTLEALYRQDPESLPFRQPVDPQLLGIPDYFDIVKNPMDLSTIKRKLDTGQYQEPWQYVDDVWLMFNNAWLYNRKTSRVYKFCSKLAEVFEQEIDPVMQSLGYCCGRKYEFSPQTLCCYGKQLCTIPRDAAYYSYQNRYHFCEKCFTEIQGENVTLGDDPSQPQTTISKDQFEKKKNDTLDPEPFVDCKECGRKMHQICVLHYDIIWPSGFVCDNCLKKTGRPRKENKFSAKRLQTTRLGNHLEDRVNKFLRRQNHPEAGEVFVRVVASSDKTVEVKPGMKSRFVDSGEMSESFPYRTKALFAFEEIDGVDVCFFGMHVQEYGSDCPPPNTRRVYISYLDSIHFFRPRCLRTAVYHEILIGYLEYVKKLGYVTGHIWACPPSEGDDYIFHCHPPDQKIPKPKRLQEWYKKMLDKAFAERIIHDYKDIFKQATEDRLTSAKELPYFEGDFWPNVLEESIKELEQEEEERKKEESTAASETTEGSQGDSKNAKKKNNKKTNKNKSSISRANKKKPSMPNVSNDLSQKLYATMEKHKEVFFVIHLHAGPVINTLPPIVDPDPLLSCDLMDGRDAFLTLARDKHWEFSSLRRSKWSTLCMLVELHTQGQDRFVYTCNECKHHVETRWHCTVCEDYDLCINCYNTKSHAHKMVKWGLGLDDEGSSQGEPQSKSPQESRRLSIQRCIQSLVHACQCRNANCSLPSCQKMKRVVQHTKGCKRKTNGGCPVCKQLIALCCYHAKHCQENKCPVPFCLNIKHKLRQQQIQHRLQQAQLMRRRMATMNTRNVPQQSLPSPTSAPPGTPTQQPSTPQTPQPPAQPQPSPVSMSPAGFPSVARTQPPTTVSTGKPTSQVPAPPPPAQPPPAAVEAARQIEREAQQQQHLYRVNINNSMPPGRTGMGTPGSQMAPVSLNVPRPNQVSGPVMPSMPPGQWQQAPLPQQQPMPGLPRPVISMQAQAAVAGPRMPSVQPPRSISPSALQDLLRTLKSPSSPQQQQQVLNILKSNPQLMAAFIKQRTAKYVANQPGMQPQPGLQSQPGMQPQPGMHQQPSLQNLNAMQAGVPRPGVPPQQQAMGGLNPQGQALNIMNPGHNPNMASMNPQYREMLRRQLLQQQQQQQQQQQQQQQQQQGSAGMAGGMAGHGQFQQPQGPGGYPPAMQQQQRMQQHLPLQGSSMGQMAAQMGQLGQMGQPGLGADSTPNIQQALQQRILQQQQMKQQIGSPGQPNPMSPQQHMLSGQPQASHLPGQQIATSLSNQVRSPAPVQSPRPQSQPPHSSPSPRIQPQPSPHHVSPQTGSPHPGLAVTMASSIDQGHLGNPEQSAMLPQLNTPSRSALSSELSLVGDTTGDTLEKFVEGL
UniProt Q09472: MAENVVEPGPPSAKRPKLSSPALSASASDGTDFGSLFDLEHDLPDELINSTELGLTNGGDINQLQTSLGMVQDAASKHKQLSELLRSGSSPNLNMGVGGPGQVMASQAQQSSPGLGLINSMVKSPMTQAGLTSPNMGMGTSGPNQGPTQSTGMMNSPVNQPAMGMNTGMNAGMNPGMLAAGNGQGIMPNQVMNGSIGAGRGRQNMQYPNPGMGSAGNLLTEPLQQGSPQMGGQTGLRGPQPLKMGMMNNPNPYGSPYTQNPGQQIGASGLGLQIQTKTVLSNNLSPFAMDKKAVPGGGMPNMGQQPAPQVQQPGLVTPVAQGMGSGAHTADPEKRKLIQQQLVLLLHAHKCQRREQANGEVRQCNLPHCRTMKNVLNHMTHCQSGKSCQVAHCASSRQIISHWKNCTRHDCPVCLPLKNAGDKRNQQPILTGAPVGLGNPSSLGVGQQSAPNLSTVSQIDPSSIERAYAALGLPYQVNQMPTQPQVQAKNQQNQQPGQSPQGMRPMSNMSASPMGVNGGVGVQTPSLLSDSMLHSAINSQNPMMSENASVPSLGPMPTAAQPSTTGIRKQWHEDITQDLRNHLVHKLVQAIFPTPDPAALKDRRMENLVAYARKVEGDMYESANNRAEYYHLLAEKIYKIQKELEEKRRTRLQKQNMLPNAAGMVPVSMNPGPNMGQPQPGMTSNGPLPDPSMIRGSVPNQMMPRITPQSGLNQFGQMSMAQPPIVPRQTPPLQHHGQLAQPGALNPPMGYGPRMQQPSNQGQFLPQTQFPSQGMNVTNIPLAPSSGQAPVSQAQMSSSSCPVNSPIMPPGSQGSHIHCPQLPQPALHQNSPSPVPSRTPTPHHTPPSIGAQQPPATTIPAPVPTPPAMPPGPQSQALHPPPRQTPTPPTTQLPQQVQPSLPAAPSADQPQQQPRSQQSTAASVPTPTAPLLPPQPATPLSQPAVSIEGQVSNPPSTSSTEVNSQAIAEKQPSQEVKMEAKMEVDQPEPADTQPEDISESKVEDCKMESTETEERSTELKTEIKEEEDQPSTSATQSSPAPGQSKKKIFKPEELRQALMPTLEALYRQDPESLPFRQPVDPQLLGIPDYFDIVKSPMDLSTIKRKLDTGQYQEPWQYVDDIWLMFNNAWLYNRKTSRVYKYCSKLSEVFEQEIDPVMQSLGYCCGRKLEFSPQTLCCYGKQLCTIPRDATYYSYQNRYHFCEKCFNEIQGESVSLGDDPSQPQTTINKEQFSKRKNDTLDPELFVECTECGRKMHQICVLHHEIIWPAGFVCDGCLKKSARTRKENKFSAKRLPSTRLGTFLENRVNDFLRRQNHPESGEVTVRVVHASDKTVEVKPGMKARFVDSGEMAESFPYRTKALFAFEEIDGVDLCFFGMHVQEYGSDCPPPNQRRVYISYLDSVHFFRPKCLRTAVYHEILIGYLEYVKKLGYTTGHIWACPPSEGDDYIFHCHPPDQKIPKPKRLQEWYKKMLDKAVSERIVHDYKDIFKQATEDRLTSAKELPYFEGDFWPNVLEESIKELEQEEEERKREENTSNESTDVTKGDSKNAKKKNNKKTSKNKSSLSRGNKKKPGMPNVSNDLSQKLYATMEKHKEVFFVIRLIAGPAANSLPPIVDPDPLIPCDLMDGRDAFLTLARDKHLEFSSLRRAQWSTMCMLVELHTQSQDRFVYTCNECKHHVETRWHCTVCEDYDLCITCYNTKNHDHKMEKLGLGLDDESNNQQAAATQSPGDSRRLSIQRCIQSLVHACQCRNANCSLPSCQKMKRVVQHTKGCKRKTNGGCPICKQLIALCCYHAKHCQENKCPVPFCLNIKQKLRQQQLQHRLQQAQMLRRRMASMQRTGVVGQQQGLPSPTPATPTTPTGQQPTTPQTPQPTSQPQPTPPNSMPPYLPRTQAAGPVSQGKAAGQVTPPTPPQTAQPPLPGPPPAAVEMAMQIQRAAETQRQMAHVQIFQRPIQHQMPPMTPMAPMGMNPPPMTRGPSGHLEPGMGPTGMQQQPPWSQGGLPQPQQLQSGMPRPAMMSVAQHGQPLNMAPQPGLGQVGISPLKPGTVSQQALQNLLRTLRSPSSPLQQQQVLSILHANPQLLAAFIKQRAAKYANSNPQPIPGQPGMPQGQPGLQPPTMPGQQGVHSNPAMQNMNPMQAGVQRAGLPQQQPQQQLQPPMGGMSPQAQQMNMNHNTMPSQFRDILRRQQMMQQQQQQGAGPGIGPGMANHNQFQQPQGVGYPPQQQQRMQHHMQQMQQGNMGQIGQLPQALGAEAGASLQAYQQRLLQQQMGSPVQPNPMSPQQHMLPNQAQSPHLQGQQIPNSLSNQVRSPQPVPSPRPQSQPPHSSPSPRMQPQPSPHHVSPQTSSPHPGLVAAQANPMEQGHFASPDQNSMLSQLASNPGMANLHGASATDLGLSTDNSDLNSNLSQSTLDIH

Biological target: GST-SIM(240–300) (Kaposi's sarcoma-associated herpesvirus (KSHV)) (UniProt Q9QR71)
Experiment: affinity purification with mass spectrometry; GST-SIM(240–300) on beads with nuclear extracts from 293 cells expressing exogenous SUMO-2; bands b1-b4 cut from the gel and identified by mass spectrometry; only the target purified

With “KAP1 (also known as TIF1β or TRIM28) (from UniProt Q13263 1-835)” the binding was “binds”.
For “CREB-binding protein (CBP) (from UniProt Q92793 1-2442)”, the binding was “binds”.
For p300 (from UniProt Q09472 1-2414), the binding was “binds”.
DNA-PKc (from UniProt P78527 1-4128) was tested, and the binding was “binds”.
